Source: patent EP4592317A1
These are yes or no findings as the source states them, for the method shown. A result given as binding can be weak or reduced; the word gives no strength.

B1: 137-12 VHH-hFc recombinant antibody (Fc fusion, not shown: a dimerising Fc or GST)
chain: QVQLVESGGGLVHPGGSLRLSCAASGFTLDDSAIGWFRQAPGKEREGVSCRSRSGYMTKYADSVKGRFTISRYNANNTMYLQMNSLKPEDTAVYYCATTRRGYCSGYETKGVDYWGQGIQVTVSS
B2: 137-16 VHH-hFc recombinant antibody (Fc fusion, not shown: a dimerising Fc or GST)
chain: EVQLVESGGGLVQAGASLTLSCVISGRTFSSYAMGWYRQAPGKERAFVGTITWNNDIIYSDSVKGRFTISTDDGKNTMYLQMNNLKPEDTAVYYCAAYSVPYGDFCTLNYDLMDYWGKGTLVTVSS
B3: 137-18 VHH-hFc recombinant antibody (Fc fusion, not shown: a dimerising Fc or GST)
chain: QVQLVESGGGLVHPGGSLRLSCAASGFIFSLYTMSWVRQAPGKGLEWVSDINSGGDSTDYADSVKGRFTISRDNAKSTLYLQMNSLKPEDTAVYYCAKDYPLGQREDYWGQGTQVTVSS
B4: 137-36 VHH-hFc recombinant antibody (Fc fusion, not shown: a dimerising Fc or GST)
chain: QVQLVESGGGLVQTGGSLTLSCVASGRRFEAYTIGWLRQAPGDLREGVGCIFGGTTFTGYDDSVKGRFTISRDTAKNTVYLRMNNLTSEDTATYYCAAEGRPGQIKGQHGCLTPSWYNYKGQGTQVTVSS
B5: 137-39 VHH-hFc recombinant antibody (Fc fusion, not shown: a dimerising Fc or GST)
chain: QVQLVESGGGLVHVGESLTLSCVISGGSSNLYGIGWYRQAPGQERKLVAVLHNEHTTKYLDSVKGRFFVSGDNAKNTLYLHMNNVKVEDTAVYYCNSASGTLAGTGYFASVGPWGQGTLVTVSS
B6: 137-1 VHH-hFc recombinant antibody (Fc fusion, not shown: a dimerising Fc or GST)
chain: QVQLVESGGGLVQPGGSLRLSCVASGFVFSTVTMGWGRQVPGKEFEWVSGVSSEGITDYADSVKGRFTISRDNAKNTVYLEMNSLKSEDTAEYYCLIGGRWSFGTWGQGTQVTVSS
B7: 137-7 VHH-hFc recombinant antibody (Fc fusion, not shown: a dimerising Fc or GST)
chain: QVQLVESGGGLVQPGGSLRLSCAASGFTLDSYAIAWFRQAPGKEREGVSCITSSGGSTNYADSVKGRFTISRDGAKNTVYLQLNSLKPEDTAIYYCAAFHRATCVILGEYDYWGQGTQVTVSS

target: Monkey 4-1BB extracellular region recombinant protein (his-tag) (monkey); test: ELISA, coated antigen

binding, binds:
B1
B2
B3
B4
B5
B6
B7
